Results published in patent publication EP0395417 (dated 1995).

Assay: Boc solid-phase peptide synthesis; Benzhydrylamine-polystyrene resin; diisopropylcarbodiimide
Details: whole synthesis, scale 0.5 mmole

[dF]FF[dW]KTFT-NH2 showed an isolated mass of 65 mg.

Where no end group is shown, it is not given here. [ ]: non-standard residue; d: D form.
